Results on one substance are retold here after patent USRE50535.

Protein sequences, listed by entry. Tags and fused reporters are not part of them. Lines headed by an entry give the natural chain unless they say otherwise; changes in a name come on top. Residues count along the entry.
UniProt P01137, residues 30-278: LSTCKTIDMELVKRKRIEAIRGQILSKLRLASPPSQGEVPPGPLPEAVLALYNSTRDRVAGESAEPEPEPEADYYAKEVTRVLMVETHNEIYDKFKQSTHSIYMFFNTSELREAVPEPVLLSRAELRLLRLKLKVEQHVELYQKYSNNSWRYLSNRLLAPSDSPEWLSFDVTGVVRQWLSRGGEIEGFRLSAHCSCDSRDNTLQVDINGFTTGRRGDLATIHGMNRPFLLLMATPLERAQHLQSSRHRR
UniProt P11464: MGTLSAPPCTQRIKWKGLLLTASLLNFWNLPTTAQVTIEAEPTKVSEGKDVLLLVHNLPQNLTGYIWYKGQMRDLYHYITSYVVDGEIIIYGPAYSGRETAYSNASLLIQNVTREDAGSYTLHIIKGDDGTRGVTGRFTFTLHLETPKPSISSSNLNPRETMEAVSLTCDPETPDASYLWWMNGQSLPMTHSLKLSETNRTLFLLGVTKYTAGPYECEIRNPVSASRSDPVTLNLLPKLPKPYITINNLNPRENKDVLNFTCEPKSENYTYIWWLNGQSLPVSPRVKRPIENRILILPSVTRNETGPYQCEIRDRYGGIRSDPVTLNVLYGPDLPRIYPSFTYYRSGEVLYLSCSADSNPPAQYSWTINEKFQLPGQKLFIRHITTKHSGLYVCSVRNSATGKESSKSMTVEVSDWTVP

In test [1] the target is small latent TGF complex (SLC) of TGFβ1 (UniProt P01137). Nature of the test: SPR. For orientation: Surface plasmon resonance follows binding to a sensor surface in real time, without labels.
The target of test [2] is latency associated peptide (LAP) of TGFβ1 (UniProt P01137). Nature of the test: SPR.

Results are given in words; binding and its absence hold for the method and conditions named. Some entries that bind do so weakly or less than the wild type.

Take “PSG1-Fc (from UniProt P11464 35-419) (Fc fusion)”: the binding entry in test [1] and in test [2] was “binds” each time.
